Measured values published in PubChem BioAssay AID651789 (National Center for Advancing Translational Sciences (NCATS), 2012).
The shares of active, inactive and inconclusive entries below differ from those in the screen. Where the call is inconclusive, the potency comes from a doubtful curve fit. Calls of active or inactive are those of the source. Calls follow the shape of the dose curve; as a rule, active = well fitted inhibition curve with a large enough effect; inconclusive = small, poorly fitted or top-dose-only effect; inactive = no such curve, though single readings can be large or run the other way.

Experiment: Acumen qHTS Assay for Inhibitors of the mTORC1 Signaling Pathway in WT MEF Cells: Hit Validation; also: nearly all actives have a fitted effect of over 60% in size;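 as to activity change, negative = inhibition: phospho-rpS6 Ser235/236 immunofluorescence normalised to propidium iodide cell stain; percent of cells above a cutoff set by 7.5 nM rapamycin treated wells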
Details: Acumen imaging; series mostly up to 37.3 µM; activity change, negative = inhibition: at the top concentration
Procedure, shortened: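 Read-out is immunofluorescent phospho-rpS6 (Ser235/236) normalised to PI-stained cell number, reported as % active cells using a 7.5 nM rapamycin threshold. Cells: WT or Tsc2-/-, p53-/- MEFs, compound-exposed 24 h at 37C; PI count also tracks viability.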
Potency is read from the fitted curve at half-maximal effect.

SMILES	activity change, negative = inhibition	Potency
CCc1ccccc1NC(=O)CSCc1cnn(-c2ccccc2)c1-n1cccc1	inactive: -1.53%	
COc1ccc(C(C(=O)Nc2ccc(C(C)C)cc2)N(C)C(=O)Cc2cccs2)cc1 (stereo unspecified)		inconclusive: 26.1 µM [inhibitor, single point]
CCCCN(C)C(=O)CSc1c2c(nc3ccc(Cl)cc13)CCCC2	inactive: 6.86%	
CCOc1cc(C(Nc2cc(C)ccn2)c2ccc3cccnc3c2O)ccc1OC (stereo unspecified)		inconclusive: 9.27 µM [inhibitor, partial curve]
CC(C)c1ccc(NC(=O)C2CCCN(S(=O)(=O)c3ccc4[nH]c(=O)ccc4c3)C2)cc1 (stereo unspecified)		inconclusive: 5.85 µM [inhibitor, partial curve, poor fit]
CCCCCn1c(=N)n(CC(O)COc2cccc(C)c2)c2ccccc21 (stereo unspecified)		active: 4.14 µM
CCCCN(C)CCNC(=O)C1CCN(c2nc3ccc(CC)cc3s2)CC1		inconclusive: 26.1 µM [inhibitor, single point]
COC(=O)c1ccccc1NC(=O)CCS(=O)(=O)c1nc(-c2ccc3c(c2)OCO3)cc(C(F)(F)F)n1		inconclusive: 9.27 µM [inhibitor, partial curve]
CC1CCCN(CCCNC(=O)c2ccc3c(c2)N(Cc2ccc(Cl)cc2)C(=O)c2ccccc2S3(=O)=O)C1 (stereo unspecified)		inconclusive: 23.3 µM [inhibitor, single point]
CCOc1ccc(N(Cc2ccccc2)C(=O)c2nc(S(C)(=O)=O)ncc2Cl)cc1		active: 2.07 µM
COc1ccccc1NC(=O)CSc1ccc(-c2ccccn2)nn1	inactive: -12.8%	
Cc1ccc2occ(CC(=O)Nc3ccc(Cl)c(C(F)(F)F)c3)c2c1		inconclusive: 23.3 µM [inhibitor, single point]
COc1cccc(-c2nc(S(=O)(=O)c3ccc(Cl)cc3)c(NCc3ccccc3)o2)c1		inconclusive: 0.0261 µM [inhibitor, full curve]
CCOc1ccccc1NC(=O)Cn1nnc(C(=O)NCc2cccs2)c1N		inconclusive: 0.464 µM [inhibitor, full curve, poor fit]
Cc1cccc(N(CC(=O)NCCSc2ccc(Cl)cc2)S(=O)(=O)c2ccccc2)c1C	inactive: 14.5%	
CCCOc1cccc(C2c3c(-c4ccccc4O)n[nH]c3C(=O)N2Cc2ccco2)c1 (stereo unspecified)	inactive: -6.4%	

An excerpt of these results, in CSV form.
SMILES,"activity change, negative = inhibition",Potency
CC(C)c1ccc(NC(=O)C2CCCN(S(=O)(=O)c3ccc4[nH]c(=O)ccc4c3)C2)cc1 (stereo unspecified),,"inconclusive: 5.85 µM [inhibitor, partial curve, poor fit]"
CCOc1ccc(N(Cc2ccccc2)C(=O)c2nc(S(C)(=O)=O)ncc2Cl)cc1,,active: 2.07 µM
